Results as given in paper PMC6426960.
Results are given in words; binding and its absence hold for the method and conditions named. Binding seen in cells or lysates may run through a third protein. These calls come from enrichment with a bait or labelling near it, and not all partners need be listed. No binding means not detected with the bait. Tags and fused reporters may be left off the sequences shown.

B1: RpoD (σ^66) (protein, UniProt D6YT87 1-555)
chain: MKNNSTPKEAISQQHQQKIDELVAIAKDQGFITYEEINDVLPMTIDTADQIDQILIFLSGMDVQILNQSEVERQKEKKKEAKELEGLPRRVEGTPDDPVRMYLKEMGSVPLLTREEEVEISKRIEKAQHQIERIIMRFRNSSRETIAICSALINNKERFDKCITEKEIENKTEFLKLLPRLSDLLQKDDQILESHLIELENPKLTKAERAYYLEEIEKARIRTQAYLRRLHLRHNIIDDFGEVIMESYDRFLQLEEEILELTPRAERNKYAGLKLAAAKRKLKKKELAAGRSLEEYKKDVRMLQRWMDKSQEAKREMVESNLRLVISIAKKYTNRGLSFLDLIQEGNMGLMKAVEKFEYRRGYKFSTYATWWIRQAVTRAIADQARTIRIPVHMIETINKVLRGAKKLMMETGREPTPEELANELGLSAERIREIYKIAQHPISLQAEVGDGGESQFGDFLEDTGADSPAEATGYSILKDKMNEVLLTLTDRERKVLIQRFGLNDGKPKTLEEVGVEFNVTRERIRQIEAKALRKMRHPTRSKQLKAFLDLLEVE
B2: Wcw_1456 (endogenous) (protein, UniProt D6YRW0 1-258)
chain: MHEALKDILPIQEFDMQMIQLMKLKKERTKELNHINGIKSDLRQKTMIKEGEIIELRKNIRLLEGEVKEVAEKIKKLEGQQSQVRKVDEFNALSHEISQAERERVAKDQRLSDLYDQVAAEEEALKSLNENLELTVENSKVLENEIKESIERINEEGKAIQKQRDELVGSADPELFRIYEMLLKNKKDRVVVPIENRCCSGCHITLTAQHENLVRKGERLVFCEHCSRIHFWQESEALEGTAVATKTRRRRRTTTKST
B3: Wcw_1460 (endogenous) (protein, UniProt D6YRW4 1-403)
chain: MLAKSKSKNSHPEAQNPLILRAHRLMEAFAKSDDERDFYLDKIEGFIIYVDLDKTQEELDNLESELEKDPERYSPIPKLSFFESKKIMESFVNEKVYDIDTKEKLLDIIQSKEARDNFLEFIYDHHMELEKWQQFYQERSRIRIIEWLRSNSFNFVFEEDLDLSTKAVEKLKEHLFDKKVPKDVEVARKTLMTKAKSYYSNEALNPRPKRGRPPKQQEKVEMEPQVTVDIYTTVPSAVRAFLFTPDITSIADVTFSSRFETGKELLDHLKNGTSPYEMEESMNNINAKLAQLRELSSNWMNDDNEAPTSIKEKDSFVGDSYEGLGDEDKELFLKLEEKKNSIQKKKEEKKPVKKKIQKVPEKKPVKRIIPKEPAAKKTKPTKRPIRKLIRTKPAESQSTKKKK

Tests used:
[1] = target: T1, His6_Wcw_1456 (Waddlia chondrophila) (UniProt D6YRW0); assay: affinity purification with mass spectrometry; His pull-down (Pierce Pull-Down PolyHis kit): His-tagged bait from the E. coli soluble fraction immobilised on HisPur Cobalt resin; prey: lysate of purified W. chondrophila EBs (1/40 fraction per pull-down); eluted with SDS sample buffer; shotgun mass spectrometry; His tag alone as control; only the target purified
T1 sequence: B2 chain

[2] = target: T2, His6_Wcw_1460 (Waddlia chondrophila) (UniProt D6YRW4); assay: as above
T2 sequence: B3 chain

Row | Binder | binding [1] | binding [2]
1 | B1 | binds | binds
2 | B2 |  | no binding
3 | B3 | no binding | 
